## Library screening results

By UniProt entry, the sequences of proteins in these tests, tags left out.
UniProt E9BF75, entry or part of it: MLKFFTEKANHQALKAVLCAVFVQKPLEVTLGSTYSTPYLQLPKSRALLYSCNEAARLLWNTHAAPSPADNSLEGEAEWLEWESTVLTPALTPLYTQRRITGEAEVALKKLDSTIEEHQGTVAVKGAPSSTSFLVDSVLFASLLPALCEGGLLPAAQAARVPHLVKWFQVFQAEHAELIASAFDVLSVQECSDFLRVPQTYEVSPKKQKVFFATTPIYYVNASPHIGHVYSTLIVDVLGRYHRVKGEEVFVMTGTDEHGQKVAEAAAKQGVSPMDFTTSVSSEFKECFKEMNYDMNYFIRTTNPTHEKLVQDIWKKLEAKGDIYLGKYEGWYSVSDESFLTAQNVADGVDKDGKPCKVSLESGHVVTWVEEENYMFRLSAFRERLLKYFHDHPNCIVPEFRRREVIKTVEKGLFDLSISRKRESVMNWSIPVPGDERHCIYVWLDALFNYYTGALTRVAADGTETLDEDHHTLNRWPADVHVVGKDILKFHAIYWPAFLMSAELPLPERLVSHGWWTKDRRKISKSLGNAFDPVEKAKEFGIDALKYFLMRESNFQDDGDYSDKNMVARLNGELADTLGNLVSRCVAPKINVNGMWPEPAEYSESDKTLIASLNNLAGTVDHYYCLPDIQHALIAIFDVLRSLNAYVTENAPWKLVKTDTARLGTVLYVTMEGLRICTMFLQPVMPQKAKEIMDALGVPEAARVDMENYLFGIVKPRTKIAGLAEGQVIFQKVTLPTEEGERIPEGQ

The values are deposited in ChEMBL (CHEMBL3988442, “University of Dundee, Small-Polar-MMV Screening Library” (2021)).

LdMetRS: 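Primary screen of methionyl-tRNA synthetase; the read-out is not stated. Target: Methionyl-tRNA synthetase (putative), Leishmania donovani (UniProt E9BF75). The test concentration is not given. The values are filed as inhibition. Size under these conditions: about 68,000 compounds, about 24 of them at 50% or above in at least one test.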
Mtb heat-shock: 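Assay on Mycobacterium tuberculosis, filed only as a heat shock assay from Cornell; the read-out is not stated. The concentration is filed as 10 mM, unlikely as a test dose, so the dose is not known. Direction is inferred from retests: higher values go with stronger inhibition. Size under these conditions: about 69,000 compounds, about 930 of them at 50% or above in at least one test.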

All values are in %. How 0% and 100% were set is not recorded. Most values in the screen are low, and negative values occur. This is an unselected part of the compounds tested. A dash means the value is not listed here; it may have been measured.

SMILES	LdMetRS	Mtb heat-shock
Cc1nn(C)c(C)c1CCn1cncc1-c1ccc2c(c1)CC(C)N2C (stereo not shown)	39.94%	-
CCCc1nc(CNC2(c3nccs3)CCCC2)cs1	6.475%	94.85%
CCOC[C@]12COC[C@H]1CN(Cc1ccc3c(c1)OCO3)C2	3.519%	-
Cc1ccoc1C(=O)N1CCCN(Cc2cnn(C)c2)CC1	17.13%	10.11%
Cc1[nH]c2ccc(CNC(=O)c3ccc(CN4CCCC4)o3)cc2c1C	2.01%	6.711%
CCCc1nc(N(C)Cc2ccco2)c2c(n1)c(C)nn2CC	20.4%	8.844%
CCn1cnnc1CNC(=O)NC(c1ccccc1)C1CCCC1 (stereo not shown)	6.494%	9.98%
[H][C@]12CC[C@]([H])(CN(c3ncccn3)C1)N(C(=O)Cn1ccnc1CC)C2	-	-14.72%
CCCC1CCCN(C(=O)Nc2ccc(F)c(C(N)=O)c2)CC1 (stereo not shown)	14.99%	5.723%
CN(C)c1ccc(C(=O)Nc2ccn(CCc3ccncc3)n2)cc1	4.202%	-11.84%
CC(C)N1CCCC(CNC(=O)CN(C)S(=O)(=O)c2ccccc2)C1 (stereo not shown)	12.01%	7.259%
Cn1cc(N2CCC(NC(=O)c3c(F)cccc3F)C2=O)cn1 (stereo not shown)	6.32%	-13.4%
CCC(C#N)NC(=O)c1cc(Br)c2c(c1)OCCO2 (stereo not shown)	19.94%	-24.22%
O=C(O)C(F)(F)F.O=C(O)c1c(NC2CCC2)ncc2c1CCN(C1CCOC1)C2 (stereo not shown)	-	-29.9%
CCn1nc(C)c(NC(=O)CCn2ncc3cc(C)ccc32)c1C	-38.94%	-11.79%
[H][C@@]12CS(=O)(=O)C[C@]1([H])N(Cc1cnc(C)nc1)CCN2C(=O)N(C)C	-	1.831%
CN(Cc1ccccc1O)CC1CCCN(CCc2ccc(Cl)cc2)C1 (stereo not shown)	12.36%	-19.3%
COc1ccccc1CN1CC[C@H](c2nnc(-c3cncn3C)o2)C1	10.53%	-50.97%
CC1CCN(S(=O)(=O)N2CCCC(c3cccc(C(=O)O)c3)C2)CC1 (stereo not shown)	4.27%	5.933%
CC(=O)N1CCc2nnc(C3CCCCN3CC3CCCCC3)n2CC1 (stereo not shown)	10.97%	-29.25%
CC(=O)N1CCCC(c2ccccn2)C1 (stereo not shown)	-1.294%	-15.12%
Cc1ccc(NC(=O)CN(C)C(=O)c2ccc(-n3cccc3)nc2)nc1	8.696%	2.669%
Cn1nc2c(cc1=O)CN(Cc1nnc(-c3ccc(F)cc3)o1)CC2	9.816%	25.68%
CC1(c2ccccc2)CCC(=O)N(CCN2CCOCC2)C1 (stereo not shown)	16.43%	-47.57%
CC(C)c1cc(NC(=O)CN2CCc3c(nc(C(C)C)n3C)C2)on1	3.644%	17.71%
[H][C@]12CCCC(OCc3cccnc3)[C@@]1([H])CN(C(=O)c1cnc(C)cn1)C2 (stereo partly shown)	-	-9.118%
COCCOc1ccc(NC(=O)C2CCC2)cn1	8.92%	13.01%
O=C(NCCc1csc(-c2ncccn2)n1)c1cnn2c1CCCC2	13.43%	2.69%
CN1CCCN(Cn2nc(-c3ccccc3F)ccc2=O)CC1	21.41%	2.389%
O=C(O)C(F)(F)F.O=C1CC(c2ccccc2)C2(CCN(Cc3nccs3)CC2)N1 (stereo not shown)	-	-1.259%
COCCN1CC[C@H]2CN(c3cc(OC)ncn3)C[C@@H]2C1=O	0.3623%	-
CCC[C@@H]1CN(S(=O)(=O)c2ccc3[nH]c(=O)[nH]c3c2)C[C@H]1NC(C)=O	10.65%	26.7%
O=C(C1CC=CC1)N1CCCn2nnc(CNc3ncccn3)c2C1	14.21%	9.178%
Cc1nc(C2CCCN(C(=O)c3ccnc(N(C)C)c3)C2)no1 (stereo not shown)	10.89%	-6.886%
COCC(O)CNc1cncc(Br)c1 (stereo not shown)	9.375%	5.839%
O=C(Cc1ccccc1)N1CCN(Cc2noc(C3CC3)n2)CC1	16.67%	29.82%
CCCn1nc2c(cc1=O)CN(Cc1nc(-c3ccoc3)no1)CC2	-2.857%	3.523%
[H][C@@]12CN(C(=O)C3CCOC3)C[C@]1([H])C(=O)N(Cc1cccc(C)c1)C2 (stereo partly shown)	-	20.48%
[H][C@]12CC[C@@]3(N=C(CC)N(C)C3=O)[C@@]1([H])CN(C(=O)NC(C)C)C2	-	4.535%
CCC(C)N(C)CCNC(=O)NCc1cccc(-n2cncn2)c1 (stereo not shown)	11.52%	5.582%
COCc1n[nH]c2c1CN(C(=O)c1ccncc1)C2	7.609%	-
Cc1nnc(NC(=O)CN(C)CC2CCCN2c2cccnn2)s1 (stereo not shown)	6.667%	12.72%
CCOCC(O)CN1CCN(C(=O)C2CCC2)CC1 (stereo not shown)	13.19%	-4.648%
c1ccc(-c2cnc(CNC3CCCN(c4cccnn4)C3)o2)cc1 (stereo not shown)	15.95%	37.81%
CN(C)C1CCC2(CCN(Cc3nccn3C)CC2)c2ccccc21.O=C(O)C(F)(F)F.O=C(O)C(F)(F)F (stereo not shown)	-	5.792%
Cc1ccc(S(=O)(=O)N(C)c2ccsc2C(=O)NCC(C)C)cc1	2.87%	-28.42%
[H][C@]12CN(C(=O)C3CC3)CCN1C(=O)N(CCOC)C2	-	11.16%
CNC(=O)CCc1cccc(C2CCCN(c3cc(C)ncn3)C2)n1 (stereo not shown)	11.64%	-14.56%

Repeated from the top, 3 entries:

Cc1nn(C)c(C)c1CCn1cncc1-c1ccc2c(c1)CC(C)N2C (stereo not shown) read LdMetRS: 39.94%.
CCCc1nc(CNC2(c3nccs3)CCCC2)cs1 read LdMetRS: 6.475%; Mtb heat-shock: 94.85%.
CCOC[C@]12COC[C@H]1CN(Cc1ccc3c(c1)OCO3)C2 read LdMetRS: 3.519%.